Earlier results, collected in patent US20210228509A1 (Nacuity Pharmaceuticals, Inc., priority 2020, published 2021).
The name of at least one read-out is uncertain.

Settings: NACA neutral, NAC acidic; cited from earlier work

Compound: CC(=O)N[C@@H](CS)C(N)=O
- lipophilicity and cell permeability relative to NAC: greater lipophilicity and cell permeability than NAC
